Earlier results in publication PMC10301896 (Pharmaceutics, 2023).
Read-outs that look alike come from different tables or passages of the source.

Details: cited from earlier work

O=C(O)c1cn(C2CC2)c2cc(N3CCNCC3)c(F)cc2c1=O [CFX, ciprofloxacin]
24-h urinary excretion (after the 100-mg intravenous dose): 42.2% | 24-h urinary excretion (after the 500-mg twice-daily oral dose during steady state): 42.5% | Fecal recovery, % of the dose: approximately 15%
